# Primary screen of a compound library

Results are given as percent effect.
The record does not define 0% and 100%; most values in the screen are far below 50% and negative numbers occur (in some assays of this library far below -100).
Compounds were drawn at random from those tested, without regard to their results.
Two or more numbers in one place are separate tests of the same structure; such repeats can differ widely.

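Whole-cell growth test on Mycobacterium tuberculosis, read after 3 days in glucose-containing 7H9 medium; the read-out is not stated. Compounds at 50 µM. Higher reads as more growth inhibition (inferred: compounds with an IC50 in retests scored well above the rest). Size under these conditions: about 69,000 compounds, about 760 of them at 50% or above in at least one test.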

| structure | effect |
|---|---|
| `CCc1ccc(CCn2cnc(C#N)n2)cc1` | 33.37% |
| `Cc1ccc(OCCCC(=O)NC(C)c2nnc3n2CCC3)cc1` (configuration not stated) | -5.007% |
| `CN(C)S(=O)(=O)N1CC[C@]2(C[C@@H](Oc3cccnc3)CO2)C1.O=C(O)C(F)(F)F` | 16.75% |
| `O=C(NCCCN1CCN(c2ncccn2)CC1)NCC1CCCO1` (configuration not stated) | -31.57% |
| `Fc1ccc(C2(NCc3ccccc3)CCOCC2)cc1` | -21.89% |
| `COc1ncnc(N)c1CNCC(C)SC` (configuration not stated) | -10.52% |
| `CC(C)c1cccc(-n2cc(O)c(C(=O)NCCC(=O)N(C)C)n2)c1` | 21.92% |
| `Cc1cc(CN2CCN(C(=O)NCc3ccc(C)s3)CC2)on1` | 4.932% |
| `Cc1nccnc1N1CC[C@@H](NC(=O)c2cnccn2)[C@H](O)C1` | -18.06% |
| `CN(C)C(=O)c1cnn2c1OCCC2` | 27.52% |
| `Cc1noc(C)c1-c1cccc(CC2CCN(C(=O)c3cc[nH]n3)C2)n1` (configuration not stated) | 28.49% |
| `O=C(NCCNc1ccccn1)N1CCSCC1` | 18.48% |
| `CC(NC(=O)N1CCN(c2ccccc2O)CC1)c1nncn1C` (configuration not stated) | -6.673% |
| `Cc1ccccc1NC(=O)NCCn1nc(C(F)(F)F)n(C)c1=O` | 11.96% |
| `CNC(=O)C1CN(C(=O)c2ccccc2)Cc2cn(C)nc21` (configuration not stated) | -24.83% |
| `[H][C@@]12CS(=O)(=O)C[C@]1([H])N(C(=O)c1cc(-c3cccn3C)n[nH]1)CCN2CC` | 17.34% |
| `c1ccc(CCn2cc(-c3nc(CN4CCOCC4)no3)nn2)cc1` | 11.88% |
| `CCc1cc(N(C)CCC(O)c2ccccc2)n2nccc2n1` (configuration not stated) | -31.9% |
| `Cn1cnc2c1CCN(Cc1csc(-c3ccsc3)n1)C2` | -32.7% |
| `NC(=O)CCn1ccc(NC(=O)C2(c3ccc(F)cc3)CCC2)n1` | -34.31% |
| `Cc1ccn(CCC(=O)NCCc2ccco2)n1` | 19.14% |
| `Cl.N[C@@H](Cc1ccccc1)c1nnc(S(=O)(=O)Cc2cccc(Cl)c2)o1` | -8.631% |
| `NCCC(=O)N1CCC2(CC1)CN(C(=O)c1ccc(Cl)cc1)CCO2` | -5.548% |
| `Cc1nc(C2CCCN2C(=O)c2cc3c(s2)CCCC3)no1` (configuration not stated) | 3.538% |
| `CCn1nc(C)c(CNC(=O)c2nnc3ccc(Cl)cc3n2)c1C` | 18.82% |
| `Cc1c(-c2cc(-c3cnn(C)c3C)n(CC(=O)NC3CC3)n2)cnn1C` | -22.75% |
| `CNC(=O)C(C)(C)CNC(=O)Nc1ccc(C)cn1` | 1.231% & 4.894% |
| `Cc1c(C2N3C[C@]4(C(C)C)CN2C[C@](C(C)C)(C3)C4=O)[nH]c(=O)[nH]c1=O` (some centres not stated) | -4.88% |
| `CS(=O)(=O)N1CCN(C(=O)CCC2CCCO2)CC1` (configuration not stated) | 1.779% |
| `CN(Cc1ccccc1)C(=O)CCN1CCC2(CC1)[C@H](O)C[C@@H]2O` | -27.38% & -0.4785% |
| `Cc1ccc(CNCC(C)Oc2ccccn2)cc1.Cl` (configuration not stated) | 12.96% |
| `Cc1ccc(CN(C)C(=O)C(C)n2ccnc2C(C)C)o1` (configuration not stated) | -7.2% & -17.69% |
| `O=C(NC1CCCN(CCCc2ccccc2)C1)c1ccc(Cl)s1` (configuration not stated) | 61.81% |
| `CN1CCC(Cc2cc(N(C)C)ncn2)C1` (configuration not stated) | -2.222% |
| `O=c1cc(N2CCCC2)cnn1CCc1cccc(F)c1` | 17.95% |
| `COc1cccc(-c2n[nH]cc2CNC2CCC(O)CC2)c1.Cl` (configuration not stated) | 19.69% |
| `CCc1ccc(CNC(=O)NC2CCCc3c2cnn3CCO)s1` (configuration not stated) | -5.547% |
| `CCC(C(=O)NCC1CCN(c2ccncc2)CC1)N(C)C` (configuration not stated) | 3.281% |
| `O=C1CN(c2ccc(CNc3cncc(-n4cccn4)n3)cc2)CCN1` | -27.44% |
| `O=C1NCCCC12CCN(Cc1ccc(SC3CCCCC3)o1)C2` (configuration not stated) | -1.978% |
| `COCCN(CCOC)c1ncc(C#N)cc1Cl` | 5.432% & 16.38% |
| `O=C(c1cccc(Cn2ccnc2)c1)N1CCCC(n2ccnc2)C1` (configuration not stated) | 23.05% |
| `Cc1ccc(N2CCCC3(CCCC(=O)N3)C2)nn1.O=C(O)C(F)(F)F` (configuration not stated) | -1.975% & -5.432% |
| `Cc1nn(C)c(C)c1CCC(=O)N1CCCC1Cn1cccn1` (configuration not stated) | 8.416% |
| `[H][C@@]12CCN(C3CCOCC3)C[C@@]1([H])O[C@@H](C(=O)N(C)C)C2` | 2.069% |
| `Cc1ccc(Sc2ccc(N3CCCC(C(=O)O)C3)nn2)cc1` (configuration not stated) | -21.7% |
| `[H][C@]12CC[C@]([H])(CN(C3Cc4ccccc4C3)C1)N(C(=O)c1ccc[nH]1)C2` | 36.04% |
| `CC(C)COC(C)C(=O)NCc1ccc(F)cc1` (configuration not stated) | 26.43% |
| `COc1cccc2c1N(Cc1noc(C(C)(C)C)n1)CCC2` | 7.752% & 3.64% |
| `Cn1cc(NC(=O)Cc2cccs2)c(=O)n(C)c1=O` | -20.83% |
| `CCc1cc(C(=O)N2CCCC2c2nc(C)c(CC)c(O)n2)on1` (configuration not stated) | -27.64% |
| `CCN(CC)C(C(=O)NCc1ccc(N2CCCC2)nc1)C(C)C` (configuration not stated) | 4.664% |
| `O=C1CCSCC(C(=O)N2CCN(C3CCCCC3)CC2)N1` (configuration not stated) | 15.24% & -2.684% |
| `CCn1ncc(-c2cc(C(F)F)n3nc(CCC(=O)O)nc3n2)c1C` | -13.9% |
| `c1cc(-c2noc([C@@H]3CCCN3CC3CC3)n2)cc(N2CCCC2)n1` | 11.18% & 22.28% |
| `COC(=O)c1cc(NC2CCN(CC(F)(F)F)C2=O)ccc1C` (configuration not stated) | 5.466% & 15.71% |
| `Cc1nc2c(Nc3cccc(C#N)c3)nc(N)nc2n1C` | 67.11% |
| `COC(=O)c1ccc(C(=O)NCC2(O)CCOCC2)cc1` | -8.625% |
| `COCCN1CCN(C(=O)N2CCCC2)Cc2ccc(C)nc21.O=C(O)C(F)(F)F` | -37.27% |

The first 6 entries again:

* CCc1ccc(CCn2cnc(C#N)n2)cc1 | 33.37%
* Cc1ccc(OCCCC(=O)NC(C)c2nnc3n2CCC3)cc1 (configuration not stated) | -5.007%
* CN(C)S(=O)(=O)N1CC[C@]2(C[C@@H](Oc3cccnc3)CO2)C1.O=C(O)C(F)(F)F | 16.75%
* O=C(NCCCN1CCN(c2ncccn2)CC1)NCC1CCCO1 (configuration not stated) | -31.57%
* Fc1ccc(C2(NCc3ccccc3)CCOCC2)cc1 | -21.89%
* COc1ncnc(N)c1CNCC(C)SC (configuration not stated) | -10.52%

Data taken from ChEMBL document CHEMBL3988442, “University of Dundee, Small-Polar-MMV Screening Library” (2021).